# Screening data

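A panel of P. falciparum strains inside erythrocytes is exposed to compounds for three days, then a DNA-binding dye reports the amount of parasite DNA.
Each compound was titrated across a series from about 0.000037 to 29 µM.
The number is the fitted AC50, the concentration giving a half-maximal change in signal; a lower value means higher potency, whether the curve shows a decrease or an increase.
Calls follow the curve class and fit quality: every row here is inconclusive, covering signal-raising curves and weak, poorly fitted, partial or highest-dose-only inhibition curves.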

Values are in µM.
All entries here are filed as inconclusive.
Only part of the assay is shown, chiefly results filed as inconclusive.
Potencies fitted to partial, single-point or poorly fitting curves are rough.

With CN(C)C(=S)SC(=S)N(C)C [CP268] the assay gave Potency 19.01 µM (inhibitor, single point).
With CN(C)C(=S)SC(=S)N(C)C [CP203] the assay gave Potency 19.01 µM (inhibitor, single point).
With CN(C)C(=S)SC(=S)N(C)C [CP201] the assay gave Potency 19.01 µM (inhibitor, single point).
With CN(C)C(=S)SC(=S)N(C)C [CP297] the assay gave Potency 15.1 µM (inhibitor, single point).
With CN(C)C(=S)SC(=S)N(C)C [CP185] the assay gave Potency 12.59 µM (inhibitor, single point).
With CN(C)C(=S)SC(=S)N(C)C [PC15] the assay gave Potency 11.22 µM (inhibitor, single point).
With CCC(=O)OC1(c2ccccc2)CCN(C)CC1C (stereo unspecified) [SC27B] the assay gave Potency 11.22 µM (inhibitor, partial curve).
With CCC(=O)OC1(c2ccccc2)CCN(C)CC1C (stereo unspecified) [CP217] the assay gave Potency 8.912 µM (inhibitor, single point).
With CCC(=O)OC1(c2ccccc2)CCN(C)CC1C (stereo unspecified) [CP325] the assay gave Potency 12 µM (inhibitor, partial curve, poor fit).
With CCC(=O)OC1(c2ccccc2)CCN(C)CC1C (stereo unspecified) [CP203] the assay gave Potency 6.012 µM (inhibitor, partial curve).
With CCC(=O)OC1(c2ccccc2)CCN(C)CC1C (stereo unspecified) [CP329] the assay gave Potency 15.1 µM (inhibitor, single point).
With CCC(=O)OC1(c2ccccc2)CCN(C)CC1C (stereo unspecified) [P94_40] the assay gave Potency 10 µM (inhibitor, single point).
With CCC(=O)OC1(c2ccccc2)CCN(C)CC1C (stereo unspecified) [CP256] the assay gave Potency 5.012 µM (inhibitor, partial curve).
With CCC(=O)OC1(c2ccccc2)CCN(C)CC1C (stereo unspecified) [CP194] the assay gave Potency 13.46 µM (inhibitor, single point).
With CCC(=O)OC1(c2ccccc2)CCN(C)CC1C (stereo unspecified) [CP260] the assay gave Potency 11.22 µM (inhibitor, partial curve).
With CCC(=O)OC1(c2ccccc2)CCN(C)CC1C (stereo unspecified) [CP238] the assay gave Potency 12.59 µM (inhibitor, single point).
With CCC(=O)OC1(c2ccccc2)CCN(C)CC1C (stereo unspecified) [PC26] the assay gave Potency 7.569 µM (inhibitor, partial curve).
With CCC(=O)OC1(c2ccccc2)CCN(C)CC1C (stereo unspecified) [TAB113] the assay gave Potency 12.59 µM (inhibitor, single point).
With CCC(=O)OC1(c2ccccc2)CCN(C)CC1C (stereo unspecified) [AA1029] the assay gave Potency 11.22 µM (inhibitor, partial curve).
With CCC(=O)OC1(c2ccccc2)CCN(C)CC1C (stereo unspecified) [CP252] the assay gave Potency 5.623 µM (inhibitor, partial curve).
With CCC(=O)OC1(c2ccccc2)CCN(C)CC1C (stereo unspecified) [CP185] the assay gave Potency 7.943 µM (inhibitor, partial curve).
With CCC(=O)OC1(c2ccccc2)CCN(C)CC1C (stereo unspecified) [AS120] the assay gave Potency 12.59 µM (inhibitor, single point).
With CCC(=O)OC1(c2ccccc2)CCN(C)CC1C (stereo unspecified) [ATS189] the assay gave Potency 8.912 µM (inhibitor, single point).
With CCC(=O)OC1(c2ccccc2)CCN(C)CC1C (stereo unspecified) [CP335] the assay gave Potency 6.012 µM (inhibitor, partial curve).
With CCC(=O)OC1(c2ccccc2)CCN(C)CC1C (stereo unspecified) [ATS95] the assay gave Potency 15.85 µM (inhibitor, single point).
With CCC(=O)OC1(c2ccccc2)CCN(C)CC1C (stereo unspecified) [TAB165] the assay gave Potency 15.85 µM (inhibitor, partial curve, poor fit).
With CCC(=O)OC1(c2ccccc2)CCN(C)CC1C (stereo unspecified) [CP265] the assay gave Potency 10 µM (inhibitor, single point).
With CCC(=O)OC1(c2ccccc2)CCN(C)CC1C (stereo unspecified) [DIV17] the assay gave Potency 7.569 µM (inhibitor, partial curve).

The last 3 entries again:

* CCC(=O)OC1(c2ccccc2)CCN(C)CC1C (stereo unspecified) [TAB165] | Potency 15.85 µM (inhibitor, partial curve, poor fit)
* CCC(=O)OC1(c2ccccc2)CCN(C)CC1C (stereo unspecified) [CP265] | Potency 10 µM (inhibitor, single point)
* CCC(=O)OC1(c2ccccc2)CCN(C)CC1C (stereo unspecified) [DIV17] | Potency 7.569 µM (inhibitor, partial curve)

Source: PubChem BioAssay AID504749 (NCATS, 2011).